Test results as given in the supplement of paper PMC10849652.
The list shows a part of the results.

Chains of the proteins cited; added tags and fusions are not shown. Lines headed by an entry give the natural chain unless they say otherwise; changes in a name come on top.
UniProt Q9NWT1: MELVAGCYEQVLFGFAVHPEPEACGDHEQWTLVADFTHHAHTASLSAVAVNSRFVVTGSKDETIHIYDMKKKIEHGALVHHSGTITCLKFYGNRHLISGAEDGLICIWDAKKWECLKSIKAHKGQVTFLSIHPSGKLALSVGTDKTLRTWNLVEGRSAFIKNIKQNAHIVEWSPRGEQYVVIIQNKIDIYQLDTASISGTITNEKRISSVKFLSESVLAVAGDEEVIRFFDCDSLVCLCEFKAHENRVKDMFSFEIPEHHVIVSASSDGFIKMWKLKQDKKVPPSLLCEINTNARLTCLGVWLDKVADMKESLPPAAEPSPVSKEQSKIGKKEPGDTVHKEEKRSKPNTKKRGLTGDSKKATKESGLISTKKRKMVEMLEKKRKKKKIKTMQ
UniProt Q8N5Y8: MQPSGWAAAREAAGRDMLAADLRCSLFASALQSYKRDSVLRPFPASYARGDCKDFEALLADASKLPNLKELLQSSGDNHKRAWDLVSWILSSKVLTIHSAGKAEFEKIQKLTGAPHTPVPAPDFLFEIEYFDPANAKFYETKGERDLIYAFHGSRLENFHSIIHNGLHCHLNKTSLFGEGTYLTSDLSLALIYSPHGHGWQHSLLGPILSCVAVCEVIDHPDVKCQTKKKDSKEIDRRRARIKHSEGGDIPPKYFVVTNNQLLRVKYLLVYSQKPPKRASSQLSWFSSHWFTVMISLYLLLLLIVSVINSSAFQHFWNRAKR
UniProt O96011, whole entry, looked up, stated change not applied: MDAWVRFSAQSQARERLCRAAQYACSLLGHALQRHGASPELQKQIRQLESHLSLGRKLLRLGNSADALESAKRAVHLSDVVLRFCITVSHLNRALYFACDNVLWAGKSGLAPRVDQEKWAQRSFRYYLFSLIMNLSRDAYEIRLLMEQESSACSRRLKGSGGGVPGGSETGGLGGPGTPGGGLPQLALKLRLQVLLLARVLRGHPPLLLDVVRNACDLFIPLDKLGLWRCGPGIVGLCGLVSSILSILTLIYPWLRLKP
UniProt Q15084: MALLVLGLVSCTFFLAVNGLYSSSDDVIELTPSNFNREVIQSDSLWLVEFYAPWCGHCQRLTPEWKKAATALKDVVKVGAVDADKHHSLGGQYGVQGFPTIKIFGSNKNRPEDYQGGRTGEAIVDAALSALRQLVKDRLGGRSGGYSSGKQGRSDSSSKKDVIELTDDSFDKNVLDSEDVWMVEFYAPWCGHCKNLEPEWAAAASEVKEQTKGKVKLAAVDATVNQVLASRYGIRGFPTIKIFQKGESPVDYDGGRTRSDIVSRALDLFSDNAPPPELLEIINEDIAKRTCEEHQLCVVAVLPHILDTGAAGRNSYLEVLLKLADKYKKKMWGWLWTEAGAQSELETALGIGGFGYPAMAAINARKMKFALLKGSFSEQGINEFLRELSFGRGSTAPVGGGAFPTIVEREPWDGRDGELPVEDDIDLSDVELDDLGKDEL
UniProt Q9BTK6, whole entry, looked up: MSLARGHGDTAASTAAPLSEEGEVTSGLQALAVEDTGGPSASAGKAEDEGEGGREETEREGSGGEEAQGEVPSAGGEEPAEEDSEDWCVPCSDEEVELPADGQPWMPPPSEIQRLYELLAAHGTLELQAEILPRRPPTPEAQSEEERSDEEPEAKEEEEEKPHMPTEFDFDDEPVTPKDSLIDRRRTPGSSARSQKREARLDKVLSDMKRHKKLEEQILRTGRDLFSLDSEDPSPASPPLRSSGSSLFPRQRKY
UniProt Q8N165: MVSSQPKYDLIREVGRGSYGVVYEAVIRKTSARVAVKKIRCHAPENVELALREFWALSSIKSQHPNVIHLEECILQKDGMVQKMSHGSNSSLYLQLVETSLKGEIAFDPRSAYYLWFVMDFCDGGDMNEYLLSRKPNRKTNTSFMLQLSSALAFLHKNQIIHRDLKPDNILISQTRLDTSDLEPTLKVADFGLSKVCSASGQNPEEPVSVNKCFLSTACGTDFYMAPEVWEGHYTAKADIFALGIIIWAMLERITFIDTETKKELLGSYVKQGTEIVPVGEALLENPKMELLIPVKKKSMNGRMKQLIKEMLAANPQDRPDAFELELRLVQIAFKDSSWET
UniProt P11498: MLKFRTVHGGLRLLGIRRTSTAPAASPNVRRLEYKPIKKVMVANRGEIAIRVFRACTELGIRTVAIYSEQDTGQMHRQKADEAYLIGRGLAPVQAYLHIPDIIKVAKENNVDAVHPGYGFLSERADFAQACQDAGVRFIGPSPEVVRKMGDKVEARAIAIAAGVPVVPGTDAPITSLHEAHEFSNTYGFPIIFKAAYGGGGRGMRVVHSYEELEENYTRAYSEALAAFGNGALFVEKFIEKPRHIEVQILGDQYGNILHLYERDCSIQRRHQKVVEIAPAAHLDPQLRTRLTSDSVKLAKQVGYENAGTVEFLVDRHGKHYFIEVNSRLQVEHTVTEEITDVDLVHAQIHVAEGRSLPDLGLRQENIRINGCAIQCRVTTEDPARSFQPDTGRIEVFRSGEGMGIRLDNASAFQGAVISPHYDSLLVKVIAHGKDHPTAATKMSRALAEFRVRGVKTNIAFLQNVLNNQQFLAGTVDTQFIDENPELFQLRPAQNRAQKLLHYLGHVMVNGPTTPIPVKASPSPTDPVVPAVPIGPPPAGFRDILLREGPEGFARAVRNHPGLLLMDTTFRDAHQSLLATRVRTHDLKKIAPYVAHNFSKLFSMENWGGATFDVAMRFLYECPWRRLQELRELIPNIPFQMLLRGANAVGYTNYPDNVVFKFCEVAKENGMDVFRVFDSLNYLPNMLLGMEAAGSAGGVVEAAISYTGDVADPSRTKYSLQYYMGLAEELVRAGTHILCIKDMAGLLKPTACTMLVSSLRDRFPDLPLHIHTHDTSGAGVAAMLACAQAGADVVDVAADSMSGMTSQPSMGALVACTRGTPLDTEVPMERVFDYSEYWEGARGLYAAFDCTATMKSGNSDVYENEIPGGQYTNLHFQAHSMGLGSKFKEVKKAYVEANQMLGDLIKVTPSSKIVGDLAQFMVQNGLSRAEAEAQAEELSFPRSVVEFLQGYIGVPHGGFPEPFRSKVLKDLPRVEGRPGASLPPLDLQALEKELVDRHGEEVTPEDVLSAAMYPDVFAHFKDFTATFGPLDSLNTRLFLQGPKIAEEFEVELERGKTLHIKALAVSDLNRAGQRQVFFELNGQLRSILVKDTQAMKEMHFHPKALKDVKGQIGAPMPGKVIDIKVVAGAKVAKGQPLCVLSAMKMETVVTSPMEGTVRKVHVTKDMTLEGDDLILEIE
UniProt Q9H300: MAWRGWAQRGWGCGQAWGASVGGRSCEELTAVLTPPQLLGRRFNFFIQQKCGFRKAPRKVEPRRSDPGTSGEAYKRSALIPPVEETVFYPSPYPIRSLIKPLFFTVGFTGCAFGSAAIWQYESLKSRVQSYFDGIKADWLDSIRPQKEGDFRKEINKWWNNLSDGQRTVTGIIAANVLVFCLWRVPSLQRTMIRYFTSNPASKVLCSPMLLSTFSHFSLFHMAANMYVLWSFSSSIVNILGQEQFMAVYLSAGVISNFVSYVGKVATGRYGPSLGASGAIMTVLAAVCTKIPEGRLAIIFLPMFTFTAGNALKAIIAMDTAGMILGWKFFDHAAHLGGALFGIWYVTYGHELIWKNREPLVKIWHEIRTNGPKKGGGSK
UniProt O94913, whole entry, looked up: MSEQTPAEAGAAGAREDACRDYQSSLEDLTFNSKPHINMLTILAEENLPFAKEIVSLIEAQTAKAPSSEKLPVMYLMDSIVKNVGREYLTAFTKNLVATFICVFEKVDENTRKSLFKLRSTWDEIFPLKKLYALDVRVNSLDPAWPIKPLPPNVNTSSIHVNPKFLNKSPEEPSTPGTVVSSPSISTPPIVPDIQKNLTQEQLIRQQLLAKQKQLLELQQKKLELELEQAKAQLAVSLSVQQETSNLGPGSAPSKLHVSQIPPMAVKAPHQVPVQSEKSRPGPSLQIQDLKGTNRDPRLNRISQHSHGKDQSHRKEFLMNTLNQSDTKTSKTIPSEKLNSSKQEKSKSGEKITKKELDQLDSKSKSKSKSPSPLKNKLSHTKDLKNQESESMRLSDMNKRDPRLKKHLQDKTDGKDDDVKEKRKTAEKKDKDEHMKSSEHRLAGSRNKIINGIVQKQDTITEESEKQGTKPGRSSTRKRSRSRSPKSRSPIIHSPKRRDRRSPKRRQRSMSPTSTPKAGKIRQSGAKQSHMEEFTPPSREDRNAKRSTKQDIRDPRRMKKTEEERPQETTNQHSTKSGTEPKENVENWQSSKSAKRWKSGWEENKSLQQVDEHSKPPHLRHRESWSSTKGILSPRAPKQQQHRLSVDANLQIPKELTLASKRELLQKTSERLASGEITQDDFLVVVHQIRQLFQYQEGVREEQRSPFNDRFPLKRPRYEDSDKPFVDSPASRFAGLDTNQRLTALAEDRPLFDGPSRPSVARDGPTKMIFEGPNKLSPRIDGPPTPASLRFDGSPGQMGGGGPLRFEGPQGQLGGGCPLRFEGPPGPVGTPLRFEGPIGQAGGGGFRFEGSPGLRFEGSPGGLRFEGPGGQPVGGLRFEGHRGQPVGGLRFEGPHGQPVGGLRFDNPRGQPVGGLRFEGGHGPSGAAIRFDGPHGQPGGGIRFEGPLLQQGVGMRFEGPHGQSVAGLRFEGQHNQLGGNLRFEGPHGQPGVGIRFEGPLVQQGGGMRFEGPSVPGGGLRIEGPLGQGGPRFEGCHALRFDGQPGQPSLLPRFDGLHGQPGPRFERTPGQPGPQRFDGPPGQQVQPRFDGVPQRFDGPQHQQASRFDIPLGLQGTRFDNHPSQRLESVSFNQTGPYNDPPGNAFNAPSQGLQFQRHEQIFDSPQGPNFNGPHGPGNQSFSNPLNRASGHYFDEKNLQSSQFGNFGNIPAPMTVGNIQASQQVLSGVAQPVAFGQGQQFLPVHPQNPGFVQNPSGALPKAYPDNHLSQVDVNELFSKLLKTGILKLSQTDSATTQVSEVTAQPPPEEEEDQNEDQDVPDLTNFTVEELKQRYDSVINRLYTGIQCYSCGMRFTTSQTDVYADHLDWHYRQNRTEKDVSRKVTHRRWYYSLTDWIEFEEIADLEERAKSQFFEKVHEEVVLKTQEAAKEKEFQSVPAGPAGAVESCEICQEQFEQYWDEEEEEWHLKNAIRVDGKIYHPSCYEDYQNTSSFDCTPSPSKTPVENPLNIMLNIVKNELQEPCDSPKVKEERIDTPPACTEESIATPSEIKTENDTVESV
UniProt P12955: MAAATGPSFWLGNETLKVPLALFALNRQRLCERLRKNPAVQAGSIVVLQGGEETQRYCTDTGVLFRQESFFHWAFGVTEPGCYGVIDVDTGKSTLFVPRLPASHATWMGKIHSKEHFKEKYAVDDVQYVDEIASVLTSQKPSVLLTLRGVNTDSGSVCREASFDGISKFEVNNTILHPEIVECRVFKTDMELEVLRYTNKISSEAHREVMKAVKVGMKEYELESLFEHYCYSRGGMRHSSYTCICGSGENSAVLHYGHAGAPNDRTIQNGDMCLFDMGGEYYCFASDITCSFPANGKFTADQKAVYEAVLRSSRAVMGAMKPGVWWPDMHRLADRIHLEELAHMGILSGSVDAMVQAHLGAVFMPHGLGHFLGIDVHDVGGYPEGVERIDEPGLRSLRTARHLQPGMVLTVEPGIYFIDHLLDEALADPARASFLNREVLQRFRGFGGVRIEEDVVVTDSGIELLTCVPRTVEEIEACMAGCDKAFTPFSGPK
UniProt Q13177, whole entry, looked up: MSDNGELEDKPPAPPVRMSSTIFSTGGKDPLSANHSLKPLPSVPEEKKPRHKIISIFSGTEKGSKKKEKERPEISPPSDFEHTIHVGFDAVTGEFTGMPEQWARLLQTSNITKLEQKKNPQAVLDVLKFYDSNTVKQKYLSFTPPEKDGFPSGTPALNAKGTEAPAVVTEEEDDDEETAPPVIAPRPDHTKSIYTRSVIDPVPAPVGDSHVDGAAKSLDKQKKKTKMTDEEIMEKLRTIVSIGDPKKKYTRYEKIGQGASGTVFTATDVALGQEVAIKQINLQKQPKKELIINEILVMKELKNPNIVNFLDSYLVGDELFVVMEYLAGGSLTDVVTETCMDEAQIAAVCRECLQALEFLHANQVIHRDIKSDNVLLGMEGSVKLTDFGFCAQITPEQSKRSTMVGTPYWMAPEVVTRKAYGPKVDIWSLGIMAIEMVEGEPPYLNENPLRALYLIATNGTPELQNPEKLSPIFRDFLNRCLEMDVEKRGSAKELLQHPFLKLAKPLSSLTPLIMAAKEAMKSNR

Columns and labels:
Assay in all cases: log2 fold change, soluble protein after heating vs DMSO (PISA); higher = thermal stabilisation; K562 cells, 10 uM, 30 min; active = over 0.2 and 3.5 SD of the protein, either way, in both replicates (recomputed)
[1] = compound: C1=CC=C(C=C1)[C@H](COC2=CC3=C(C=C2)NC(=O)N3)NC(=O)C4=CC=CN(C4=O)CC5=CC(=C(C=C5)F)F
How it was run: (§1)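 Values are thermal stability changes relative to control samples and are taken from duplicates. They are stated as log2 fold changes. Before quantification by TMTpro 16plex LC-MS/MS with equalised channel sums, K562 cells at 2×10^6 cells/mL were treated with 10 μM compound for 30 min, heated in aliquots for 3 min across 48°C-58°C, pooled, extracted in PBS with 0.5% NP-40 at 4°C, and centrifuged at 21,000xg for 90 min to give the soluble supernatant.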

[2] = compound: CC1=C(SC2=C1C(=N[C@H](C3=NN=C(N32)C)CC(=O)N)C4=CC=C(C=C4)Cl)C
How it was run: as §1

[3] = compound: CC1=C2C(=CC=C1)N=C(N(C2=O)C3=CC=CC=C3C)CN4C=NC5=C(N=CN=C54)N
How it was run: as §1

[4] = compound: Cc1sc2c(c1C)C(c1ccc(Cl)cc1)=N[C@@H](CC(=O)OC(C)(C)C)c1nnc(C)n1-2
How it was run: as §1

[5] = compound: c1ccc([C@@H]2C[C@H]2NC2CCNCC2)cc1
How it was run: as §1

Measured: log2 fold change

PALM3 (UniProt A6NDB9)
inactive: [1] 0.01 | [2] 0.029 | [3] -0.024 | [4] 0.025 | [5] 0.057

PAK1IP1 (UniProt Q9NWT1)
inactive: [1] 0.087 | [2] -0.282 | [3] -0.343 | [4] 0.273 | [5] 0.021

PARP16 isoform 3 (UniProt Q8N5Y8)
inactive: [1] -0.019 | [2] -0.019 | [3] 0.012 | [4] -0.041 | [5] 0.001

PEX11B (UniProt O96011)
inactive: [1] -0.027 | [2] 0.056 | [3] -0.01 | [4] -0.008 | [5] -0.005

PDIA6 isoform 2 (UniProt Q15084)
inactive: [1] -0.017 | [2] -0.058 | [3] -0.042 | [4] 0.027 | [5] 0.07

PDS5B (UniProt Q9NTI5)
inactive: [1] -0.153 | [2] 0.029 | [3] 0.169 | [4] 0.233 | [5] -0.011

PAGR1 (UniProt Q9BTK6)
inactive: [1] -0.03 | [2] -0.018 | [3] -0.076 | [4] 0.011 | [5] 0.075

PDIK1L (UniProt Q8N165)
inactive: [1] -0.255 | [2] 0.001 | [3] 0.044 | [4] 0.062 | [5] -0.005

PC (UniProt P11498)
inactive: [1] -0.012 | [2] 0.031 | [3] 0.111 | [4] 0.025 | [5] -0.021

PARL (UniProt Q9H300)
inactive: [1] 0.017 | [2] -0.017 | [3] 0.045 | [4] 0.028 | [5] 0.031

PAF1 (UniProt Q8N7H5)
inactive: [2] -0.054 | [5] -0.006

PDXP (UniProt B1AHD3)
inactive: [2] 0.029 | [3] -0.14 | [5] -0.285

PDE4DIP (UniProt E9PS60)
inactive: [2] 0.013 | [3] -0.209 | [5] -0.069

PCF11 (UniProt O94913)
inactive: [1] -0.319 | [2] -0.02 | [3] 0.068 | [5] 0.006

PEPD (UniProt P12955)
inactive: [1] 0.004 | [2] 0.051 | [3] 0.043 | [4] 0.029 | [5] -0.037

PAK2 (UniProt Q13177)
inactive: [1] 0.016 | [2] 0.027 | [3] 0.023 | [4] -0.008 | [5] -0.003

2 records drawn at random from the list so far:
PDE4DIP (UniProt E9PS60)
inactive: [2] 0.013 | [3] -0.209 | [5] -0.069

PAK2 (UniProt Q13177)
inactive: [1] 0.016 | [2] 0.027 | [3] 0.023 | [4] -0.008 | [5] -0.003
